Data published in PubChem BioAssay AID504834 (National Center for Advancing Translational Sciences (NCATS), 2011).
The campaign covered roughly 320,000 compounds. About 22,000 (6.9%) were called active. Inconclusive results, whose numbers are uncertain, are shown with a selection of clear calls. Calls come from the whole dose curve; as a rule, active = well fitted inhibition curve with a large enough effect; inconclusive = small, poorly fitted or top-dose-only effect, or another doubt; inactive = no such curve, though single readings can be large or run the other way. A potency beside an inconclusive call is a rough fit, not a confirmed value.

Experiment: Primary qHTS for delayed death inhibitors of the malarial parasite plastid, 96 hour incubation
Details: P. falciparum luciferase reporter growth; series mostly up to 28.7 µM
Method in brief: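 Erythrocytes infected with luciferase-expressing P. falciparum were dispensed at 2% hematocrit and 0.05% parasitemia (final), then incubated with compounds 96 hours at 37 C in 5% CO2. Luminescence after detection reagent addition reported growth.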
Potency is the fitted concentration of half-maximal effect.

| Structure (SMILES) | Potency |
| --- | --- |
| O=C(CSc1nc2ccccc2c(=O)n1-c1ccccc1)c1c[nH]c2ccccc12 | inconclusive: 7.38 µM [inhibitor, partial curve, poor fit] |
| CCOc1cc(C(=O)N/N=C\c2cn(CC)nc2C)cc(OCC)c1OCC | inconclusive: 0.0928 µM [inhibitor, full curve, poor fit] |
| CC1=C(C)CC(C(=O)Nc2nc(-c3ccc(C)cc3C)c(C)s2)C(C(=O)O)C1 (stereo unspecified) | inactive |
| CCC1=C(OC(=O)N(CC)CC)N2C(=O)OC(=NCCOC)[C@]2(Cc2ccccc2)[C@H]2C1=CC[C@H]1C(=O)N(C)C(=O)[C@H]12 | inconclusive: 14.7 µM [inhibitor, partial curve, poor fit] |
| COC(=O)[C@@H]1C[C@@H]2CC[C@@H](O)C[C@@H]2N1Cc1ccc(C(F)(F)F)cc1 | inconclusive: 18.5 µM [inhibitor, single point] |
| CCN(CC)CCNC(=O)Cn1cnc2sc(C)c(S(=O)(=O)N3CCN(c4ccccc4OC)CC3)c2c1=O | inconclusive: 0.522 µM [inhibitor, full curve, poor fit] |
| CC1CCCc2sc3ncn(N)c(=N)c3c21 (stereo unspecified) | inactive |
| COc1ccc(C)cc1NC(=O)CN(C)S(=O)(=O)c1ccc2c(c1)CC(C)N2C(C)=O (stereo unspecified) | active: 7.38 µM |
| Cc1ccc(C)c(C(=O)COC(=O)c2ccc(C)c(S(=O)(=O)N3CCOCC3)c2)c1 | inactive |
| CCc1ccc(S(=O)(=O)Nc2cc3c(cc2C)n(C)c(=O)n3C)cc1 | inconclusive: 11.7 µM [inhibitor, single point] |
| O=C1CC(C(=O)N2CCN(c3ccc(F)cc3)CC2)CN1CCc1ccccc1 (stereo unspecified) | inconclusive: 2.94 µM [inhibitor, partial curve, poor fit] |
| CCOC(=O)/C(C(C)=O)=C1\OC(=O)c2ccccc21 | inactive |
| CCC(=O)Nc1ccc(Cl)c(NC(=S)NC(C)=O)c1 | inconclusive: 18.5 µM [inhibitor, single point] |
| CCOC(=O)Cn1nc(-c2ccc(Cl)cc2)cc1N | inconclusive: 8.28 µM [inhibitor, partial curve, poor fit] |
| COc1ccccc1Nc1nc(-c2sc(NC(=O)c3ccc([N+](=O)[O-])cc3)nc2C)cs1 | inconclusive: 1.65 µM [inhibitor, full curve] |
| COc1cc(NC(=S)N2CCN(c3ccccn3)CC2)c(OC)cc1Cl | inactive |
| COC(=O)Cn1c(O)c(N=NC(=O)CNC(=O)COc2cccc(C)c2)c2ccccc21 | inactive |
| N#C/C(=C(/O)c1ccc2c(c1)OCO2)c1nc2cc(C(F)(F)F)ccc2s1 | inconclusive: 11.7 µM [inhibitor, single point] |
| COc1ccccc1OCCn1c(C)c(C=O)c2ccccc21 | inconclusive: 9.28 µM [inhibitor, partial curve] |
| O=C(Cc1cccc2ccccc12)Nc1ccccc1Br | inconclusive: 13.1 µM [inhibitor, single point] |
| CCN(Cc1ccccc1)C(=O)c1cccc(OC2CCN(C(=O)C3CC3)CC2)c1 | inconclusive: 11.7 µM [inhibitor, partial curve, poor fit] |
| S=C(Nc1ccc(Br)cc1Cl)NC1CCN(Cc2ccccc2)CC1 | inconclusive: 18.5 µM [inhibitor, single point] |

| Structure (SMILES) | Potency |
| --- | --- |
| CC1=C(C#N)c2nc(N)c(C#N)c(C)c2/C1=C\c1ccc(-c2ccccc2C(=O)O)o1 | inconclusive: 11.7 µM [inhibitor, partial curve] |
| CS(=O)(=O)c1ccc(C(=O)NC(Cc2ccccc2)c2ccccc2)cc1 (stereo unspecified) | inactive |
| CCCOC(=O)Nc1nc(-c2ccc(C)cc2)c(C)s1 | inactive |
| O=C(Cn1c(=O)oc2ccccc21)N1CCCC1 | inactive |
| COc1cccc(C2CC(c3cccs3)=NN2C(=O)c2ccco2)c1O (stereo unspecified) | inconclusive: 18.5 µM [inhibitor, single point] |
| COc1cc(C)ccc1OCc1cc(C(=O)N(Cc2nccn2C)C(C)C)no1 | inconclusive: 13.1 µM [inhibitor, single point] |
| O=C(Nn1cnnc1)c1cc2c(s1)CCCCC2 | inconclusive: 1.04 µM [inhibitor, partial curve, poor fit] |
| COC(=O)c1ccc(C(=O)Nc2ccc3c(c2)C(=O)NC3=O)cc1 | inactive |
| CN(C(=O)C1CCCN1S(=O)(=O)c1ccc(Cl)cc1)c1ccccc1 (stereo unspecified) | inconclusive: 8.28 µM [inhibitor, single point] |
| COc1ccc(Cl)cc1C(=O)NCC(c1ccco1)N1CCCC1 (stereo unspecified) | active: 4.15 µM |
| CCOC(=O)Cn1c(=O)n(Cc2ccc(OC)cc2)c(=O)c2cccnc21 | inactive |
| CCNS(=O)(=O)c1ccc(NC(=O)c2ccc(Cn3cc([N+](=O)[O-])cn3)o2)cc1 | inconclusive: 7.38 µM [inhibitor, partial curve, poor fit] |
| C=CCSc1ncccc1C(=O)NCc1ccccc1 | active: 11.7 µM |
| CCNC(=O)N1CCCC(C(=O)c2ccc(C(F)(F)F)cc2)C1 (stereo unspecified) | inconclusive: 0.828 µM [inhibitor, single point] |
| O=C(Nc1ccc(C(F)(F)F)cc1)C1CCN(S(=O)(=O)c2ccc(N3CCCC3=O)cc2)CC1 | inconclusive: 1.31 µM [inhibitor, partial curve, poor fit] |
| O=C(CCN1CCN(C(c2ccccc2)c2ccccc2)CC1)N/N=C/c1ccc(O)cc1 | inconclusive: 11.7 µM [inhibitor, single point] |
| O=C(CN1C(=O)CSc2ncccc21)NCCN1CCOCC1 | inconclusive: 18.5 µM [inhibitor, single point] |
| CCc1cccc2c(C(=O)CN3C(=O)N(C)C4(CCCCC4)C3=O)c[nH]c12 | inactive |
| COc1ccc(S(=O)(=O)N2CCN(C(=O)c3cc(-c4ccc(Br)cc4)n[nH]3)CC2)cc1OC | inconclusive: 20.8 µM [inhibitor, partial curve, poor fit] |
| CCSC1=N/C(=C\c2ccc(C(=O)O)cc2)C(=O)S1 | active: 13.1 µM |
| Cc1cccc(NS(=O)(=O)c2cccc(C(=O)N3CCN(c4ccccn4)CC3)c2)c1 | inconclusive: 13.1 µM [inhibitor, partial curve] |
| COC(=O)c1ccc(NC(=O)N(c2ccccc2)c2ccccc2)cc1 | inactive |

| Structure (SMILES) | Potency |
| --- | --- |
| Cc1cc(NC(=O)CSc2nncc(=O)n2N)no1 | inconclusive: 5.22 µM [inhibitor, single point] |
| CCOC(=O)c1[nH]c2ccccc2c1NC(=O)C1CCCCC1 | inactive |
| Cc1ccc(NC(=O)C2CCCN2C(=O)NC2CCCCC2)cc1 (stereo unspecified) | inconclusive: 2.08 µM [inhibitor, partial curve, poor fit] |
| COc1cccc(C2C(C(=O)OC(C)C)=C(C)N=c3s/c(=C\c4ccc(C(=O)O)cc4)c(=O)n32)c1 (stereo unspecified) | inconclusive: 18.5 µM [inhibitor, single point] |
| CSc1ccccc1C(=O)Nc1ccc(S(=O)(=O)NC2=NCCCCC2)cc1 | inconclusive: 18.5 µM [inhibitor, partial curve, poor fit] |
| CCOc1ccc(CSC(=N)N)cc1[N+](=O)[O-] | inconclusive: 10.4 µM [inhibitor, single point] |
| CCOC(=O)C1C(=O)C=C(c2ccc(C)cc2)CC1c1cccc([N+](=O)[O-])c1 (stereo unspecified) | active: 6.57 µM |
| O=C(Nc1cccc(S(=O)(=O)N2CCCCCC2)c1)c1cc(=O)c2ccccc2o1 | inconclusive: 11.7 µM [inhibitor, single point] |
| NC(=O)c1c(NC(=O)C(=O)N2CCOCC2)sc2c1CCCC2 | inactive |
| Cc1nc(CN(C)C(=O)CC2C(=O)NCCN2Cc2ccc(F)cc2)cs1 (stereo unspecified) | inconclusive: 4.65 µM [inhibitor, partial curve, poor fit] |
| O=C(NCC1CCOCC1)C1CCC(=O)N(Cc2cccc(C(F)(F)F)c2)C1 (stereo unspecified) | inconclusive: 11.7 µM [inhibitor, single point] |
| CC(=O)[C@@H]1[C@@H](C(=O)c2ccc(C)cc2)[C@]2(C(=O)Nc3ccccc32)[C@H]2C=Cc3cc(F)ccc3N12 | inconclusive: 18.5 µM [inhibitor, single point] |
| COC(=O)C1CCN(c2cnccn2)CC1 | inconclusive: 18.5 µM [inhibitor, single point] |
| Cc1cc(C)nc(NC(=NCCc2c[nH]c3ccccc23)NC(=O)C(C)(C)C)n1 | active: 4.65 µM |
| COCCNc1oc(-c2ccco2)nc1S(=O)(=O)c1ccccc1 | inconclusive: 18.5 µM [inhibitor, single point] |
| O=C(NCc1ccco1)C1CCN(C(=O)c2ccc(Cl)cc2)CC1 | inconclusive: 18.5 µM [inhibitor, single point] |
| COc1cc(NC(=S)NCCc2ccccc2)c(OC)cc1NC(=O)CC(C)C | inconclusive: 18.5 µM [inhibitor, single point] |
| CCOC(=O)c1cc(-c2ccco2)nc2c1c(C)nn2CCC#N | inconclusive: 7.38 µM [inhibitor, partial curve, poor fit] |
| CC(=O)/C(=N/Nc1ccccc1)Sc1nnc(C(O)c2ccccc2)n1-c1ccccc1 (stereo unspecified) | inconclusive: 18.5 µM [inhibitor, single point] |
| COc1ccccc1-c1nnc(SCC(=O)O)n1-c1ccc(C)cc1 | inconclusive: 11.7 µM [inhibitor, single point] |
| Cc1ccccc1OCC(O)CN1CCN(CC(O)COc2ccccc2C)C(C)C1 (stereo unspecified) | inconclusive: 18.5 µM [inhibitor, single point] |
| CC(=O)c1cccc(NC(=O)c2ccc3ccccc3c2)c1 | inactive |

An excerpt of these results, bar-delimited.
Structure (SMILES) | Potency
CCNC(=O)N1CCCC(C(=O)c2ccc(C(F)(F)F)cc2)C1 (stereo unspecified) | inconclusive: 0.828 µM [inhibitor, single point]
O=C(Nc1ccc(C(F)(F)F)cc1)C1CCN(S(=O)(=O)c2ccc(N3CCCC3=O)cc2)CC1 | inconclusive: 1.31 µM [inhibitor, partial curve, poor fit]
